Drawing on article PMC7819943, “Rice protein-binding microarrays: a tool to detect cis-acting elements near promoter regions in rice”, this text covers binding signal for 42 sequences.

The list shows a part of the results.

For the assay, the target named is T1, OsSMF1 (Oryza sativa, UniProt Q6ZLB0 1-436).
T1 sequence: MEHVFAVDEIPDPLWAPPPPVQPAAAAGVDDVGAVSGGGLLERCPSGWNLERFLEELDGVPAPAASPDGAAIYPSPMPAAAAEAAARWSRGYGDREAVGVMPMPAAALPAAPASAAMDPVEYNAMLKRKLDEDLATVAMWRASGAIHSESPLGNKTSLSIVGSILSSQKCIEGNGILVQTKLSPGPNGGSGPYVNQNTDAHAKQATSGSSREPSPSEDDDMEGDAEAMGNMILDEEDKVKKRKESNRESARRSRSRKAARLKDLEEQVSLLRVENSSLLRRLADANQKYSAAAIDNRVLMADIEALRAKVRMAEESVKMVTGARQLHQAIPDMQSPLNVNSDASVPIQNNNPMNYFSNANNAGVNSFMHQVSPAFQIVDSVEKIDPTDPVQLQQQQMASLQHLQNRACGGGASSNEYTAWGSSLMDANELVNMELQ
As to the kind of experiment: protein-binding microarray (RPBM); PBS, 2% BSA, 51.3 ng/ul salmon testes DNA, 50 uM zinc acetate, 200 nM TF, 25 C, 1 h; high values mean tight binding. The conditions noted are these: protein: recombinant; tags: N-terminal polyhistidine and DsRed monomer fusion (pET32a); chain copies: 2; label: CyDye5-dUTP incorporated in the synthesized complementary strand; 3' TTTTT single-stranded linker to array surface; dsDNA, one strand shown. The essentials: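 Using Ni–NTA, transcription factors fused N-terminally to polyhistidine and DsRed were purified after expression in E. coli BL21-CodonPlus. These were incubated at 200 nM with a blocked, double-stranded custom Agilent array for 1 h at 25 °C in a buffer containing 50 µM zinc acetate, and the array was washed. The binding signal is per-feature fluorescence intensity (arbitrary units) on an Axon 4000B scanner.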
Regarding “CAAACCATCGCATGTGCGGACGCGTTAATGTCGTTATTACCGGAGTCACCTAGTGCAG”, the binding signal was 3200 fluorescence intensity (a.u.).
To “GCTACCCCGTACTTCACCGCCTGAGTCACTAACCCAAGCCCGGAGTCACCTAGTGCAG” belongs 6550 fluorescence intensity (a.u.); to “TTGTTTATTTTCGTTGTCACGGGGTATTTTCTAGTTATCTCGGAGTCACCTAGTGCAG”, 3770 fluorescence intensity (a.u.).
The value for “GTCCACGGCGCCGCCGCACGGGACGTCGACCTGCACCGACCGGAGTCACCTAGTGCAG” was 16000 fluorescence intensity (a.u.); that for “ATGGTTACGTAAATTCTTAGTACTAACACTGACATGTCATCGGAGTCACCTAGTGCAG” was 7000 fluorescence intensity (a.u.); that for “CCGGAGGTCGAGCGCCGCGTCCGTGAGGGACACGCCGCCGCGGAGTCACCTAGTGCAG” was 3170 fluorescence intensity (a.u.).
To “GACGGGGCGGTGACAGCTACCTCAGCGAGGCGGCGTCGGCCGGAGTCACCTAGTGCAG” belongs 4360 fluorescence intensity (a.u.).
In the case of “TGCGCAAAGAATCCGGCTGGGTGCCTGACGTGGATCCTTGCGGAGTCACCTAGTGCAG”, the binding signal is 17800 fluorescence intensity (a.u.).
To “AGAAACTTGTATGCCAATATGTGTCATGCGACCATCTCTGCGGAGTCACCTAGTGCAG” belongs 5920 fluorescence intensity (a.u.); to “TTCCCTAGTGGATGCATGCATTCATACCATAGGTCAGCTGCGGAGTCACCTAGTGCAG”, 3450 fluorescence intensity (a.u.).
To “GAGAACACCCGGGTGGCGCGCCGTGACACGCACGCGCCCCCGGAGTCACCTAGTGCAG” belongs 4260 fluorescence intensity (a.u.); to “GCGTCGGCGTCGTCGGCCGTCAACGTCAGCGAGCTCGTCACGGAGTCACCTAGTGCAG”, 6120 fluorescence intensity (a.u.); to “GTCGTTTATGCGTACGTAAGAGATTAGTTCCCATCACATTCGGAGTCACCTAGTGCAG”, 3320 fluorescence intensity (a.u.).
The value for “TGCGTTACCTTTTATAATAGCCGACGTGACACGCCAAAACCGGAGTCACCTAGTGCAG” was 3430 fluorescence intensity (a.u.); that for “ACCGCCGGGGCTGACCTCTCCTCCGATTGCCCGACGCCCGCGGAGTCACCTAGTGCAG” was 25100 fluorescence intensity (a.u.).
For “ACTGCTACTTGATCAAATGATGCTGAGTAGATCTACTTTACGGAGTCACCTAGTGCAG”, the binding signal was 5080 fluorescence intensity (a.u.).
Regarding “TAAGTATGAAAAGAAACATAATATCTAGACAATCAAGCTGCGGAGTCACCTAGTGCAG”, the binding signal was 4330 fluorescence intensity (a.u.).
As to “TATGTTGGGCACCGTTTGTGTTCATCAGCCCATCACTCTTCGGAGTCACCTAGTGCAG”, the binding signal is 3420 fluorescence intensity (a.u.).
Take “GATGCGCGGGCCTCAACGTTCAGTGGCGGCACGCCACACGCGGAGTCACCTAGTGCAG”: the binding signal was 22900 fluorescence intensity (a.u.).
On to “AGGCGGCGATGGGCCTTGGGCTTTGATCCGTGGGCTGTGGCGGAGTCACCTAGTGCAG”, for which the binding signal was 5820 fluorescence intensity (a.u.).
To “CTCTCATCAAATAATATCTTGCAGCAGTTTGCTGATGCATCGGAGTCACCTAGTGCAG” belongs 3620 fluorescence intensity (a.u.); to “TGGCTTGTTGATGCTTTGCTGGCGTGTTTTGGTTTCATTTCGGAGTCACCTAGTGCAG”, 6270 fluorescence intensity (a.u.); to “TCCAGGGAGCCGCGGTGGCATATGTTGCTGACATGTTTTCCGGAGTCACCTAGTGCAG”, 5340 fluorescence intensity (a.u.).
For “GCGGAGGAGGTGGTGGTGGTGGAGGAGGAGGAGGCCAAGGCGGAGTCACCTAGTGCAG”, the binding signal was 4030 fluorescence intensity (a.u.).
To “GCAGCAACAACCGCCGCGCCATTGATGACTAATTGAGATCCGGAGTCACCTAGTGCAG” belongs 4120 fluorescence intensity (a.u.).
To “AACAGTCCTGCGTGTTGACTTGGCTAGTTGGACCAGGTCACGGAGTCACCTAGTGCAG” belongs 25500 fluorescence intensity (a.u.); to “CCAGATTTTAACATGTTTTACTGCCTTACACGTCCACTGTCGGAGTCACCTAGTGCAG”, 3840 fluorescence intensity (a.u.); to “CCACCTTTAAATCCATGTGGATCCCACCCCACCGCCTCCTCGGAGTCACCTAGTGCAG”, 3660 fluorescence intensity (a.u.).
Consider “ATATCGACTACACACTGTTCTTGGCTACATCGATTGATTGCGGAGTCACCTAGTGCAG”, for which the binding signal is 4840 fluorescence intensity (a.u.).
The value for “CAATACCAATACTCAACCATTACATATATATGTAATTGTGCGGAGTCACCTAGTGCAG” was 3430 fluorescence intensity (a.u.).
For “CCGTATGCAAGGGGAAAGGAAACGCAATCGGAGTATGCTGCGGAGTCACCTAGTGCAG”, the binding signal is 28600 fluorescence intensity (a.u.).
Turning to “TTTATCTAATTAAAATATATTTATAGCTGACTAATAGTCTCGGAGTCACCTAGTGCAG”, the binding signal is 3480 fluorescence intensity (a.u.).
As for “CAGAGAAGAACGTCATCACGTGGACAGCGATGATCTCTGGCGGAGTCACCTAGTGCAG”, the binding signal is 5620 fluorescence intensity (a.u.).
The value for “ATTCCCGACATCCAAACGGGAATCGACTCGCCGTTGCTGACGGAGTCACCTAGTGCAG” was 4500 fluorescence intensity (a.u.); that for “AACACCGCCATTGAAGCCTCATCGAGCTCTCTTACCAACGCGGAGTCACCTAGTGCAG” was 3230 fluorescence intensity (a.u.).
To “AAGGGCAGCTCAGTCATGGCTGCCACGAGGACAGATGTGGCGGAGTCACCTAGTGCAG” belongs 4760 fluorescence intensity (a.u.); to “CCAATCCCACGCCACGCCACCGCTCGAGCCGATTCGAATCCGGAGTCACCTAGTGCAG”, 5090 fluorescence intensity (a.u.); to “CATGGCCGGAGAAGCTGACGCGGAACGGCACCTCGCTCGCCGGAGTCACCTAGTGCAG”, 5580 fluorescence intensity (a.u.).
With “TCTTCTGATCAGGACAGAGAGGAACGTCATATGACGTTCGCGGAGTCACCTAGTGCAG”, the binding signal is 4300 fluorescence intensity (a.u.).
The value for “GGCGCAGATGTGCGTGGTCGCCAGCAAGGAGTCAGTTGGCCGGAGTCACCTAGTGCAG” was 4780 fluorescence intensity (a.u.); that for “CATCCACGTGGTGCCGCACCTAACCAGCGTAGCAGTTGCTCGGAGTCACCTAGTGCAG” was 5710 fluorescence intensity (a.u.).
To “GGGGCCATCCTCTTTCTCTGAGGATCATCATGCCTTGAGGCGGAGTCACCTAGTGCAG” belongs 37600 fluorescence intensity (a.u.).
